Literature values, collected in US20040054010A1, “Endosulfan formulation and methods of use thereof” (priority 2000, published 2004).

Conditions: 14 days after treatment; Chopra and Mahfouz, 1977; Mukherjee and Gopal, 1994; cited from earlier work

SMILES | endosulfan sulfate content of treated tobacco plants [ppm]
O=S1OC[C@@H]2[C@H](CO1)[C@@]1(Cl)C(Cl)=C(Cl)[C@]2(Cl)C1(Cl)Cl (stereo partly drawn) [alpha-endosulfan] | 0.5
O=S1OC[C@@H]2[C@H](CO1)[C@]1(Cl)C(Cl)=C(Cl)[C@]2(Cl)C1(Cl)Cl (stereo partly drawn) [beta-endosulfan] | 0.1
